Reference: patent US9359404B2, “Methods and products for treating preeclampsia and modulating blood pressure” (Scott & White Healthcare, priority 2011, dated 2016)
“Also recorded” adds a separate entry of the source. Part of at least one peptide drawing is inferred or uncertain, most often the ends. Ends that are not written are not given here.

How the values were obtained:
[1] = test system: mouse splenic B cells from C57B16 mice; assay: MHC class II-mediated cell death of TLR-activated splenic B cells after CLIP displacement, WT mice; type: cell-based; settings: TLR-activated (48 hrs) B cells from WT mice, TPP then antibody to MHC class II
[2] = test system: B cells isolated from CLIP KO mice; assay: MHC class II-mediated cell death of TLR-activated splenic B cells after CLIP displacement, CLIP KO mice; type: cell-based, mouse; settings: TPP then antibody to MHC class II
[3] = test system: pregnant mice with PE induced by TLR3 or TLR7 activation; assay: Prevention of TLR3/TLR7-induced PE in pregnant mice, daily TPP gestational days 13-17; type: in vivo
Text: FIG. 14 is a series of graphs depicting results from the daily administration of the CLIP-displacing peptide TPP. Daily administration of the CLIP-displacing peptide TPP (“Pep”-gestational days 13-17) prevented the development of hypertension, endothelial dysfunction, proteinuria, fetal demise, increased γδT cells, and decreased regulatory T cells in pregnant (P) mice treated with the TLR7 agonist R837 (PR mice) or the TLR3 agonist poly I:C (PPIC mice) on gestational days 13, 15, and 17.
TPP was utilized to displace CLIP on immune cells in mice during pregnancy.

PE mice = assay: Treatment of established TLR3/TLR7-induced PE in pregnant mice, daily TPP gestational days 15-17; type: in vivo; settings: TPP gestational days 15-17, started once mice were hypertensive; PR and PPIC mice
[4] = daily TPP gestational days 13-17, PR and PPIC mice

With FRIMAVLAS [TPP, FRIMAVLAS] the “susceptibility to MHC II-mediated cell death” value [1] was “increased susceptibility to MHC II-mediated cell death; also recorded: marked increase in MHC class II-mediated cell death”, the “susceptibility to MHC II-mediated cell death” value [2] was “but not in CLIP KO mice; also recorded: absent” and the “development of PE and its associated effects” value ([3]; daily TPP from onset of TLR agonist treatment on gestational day 13) was “completely prevented the development of PE”. For the same sequence, the “decreased regulatory T cells” value [3, 4] was “prevented”, the endothelial dysfunction [3, 4] was “prevented” and the fetal demise [3, 4] was “prevented”. For the same sequence, the hypertension [3, 4] was “prevented”, the “increased γδ T cells” value [3, 4] was “prevented” and the proteinuria [3, 4] was “prevented”. The fetal demise (PE mice) was “significantly reduce; also recorded: ameliorated”.
